This series in a line: Profiling of ganglioside GM1 in human plasma, CSF and urine.

As to ganglioside GM1, where the note is “CSF, any ganglioside GM1 species”, the “CSF level in GM1 gangliosidosis patients versus controls” value was “no significant differences”. Besides, the “Elevation in plasma of GM1 gangliosidosis patients versus controls” value (plasma, type II GM1 gangliosidosis) was “less than 2 fold”. The Detection in urine entry (urine) is listed as “undetectable”.

The values above are taken from patent US20240329050A1, “METHODS OF DETECTING PENTASACCHARIDES AND TREATMENT AND MONITORING OF LYSOSOMAL STORAGE DISEASE” (Washington University, priority 2021, published 2024).
